The text below walks through data of article PMC12646145.

Results are given in words; binding and its absence hold for the method and conditions named. Binding can be weak; no strength is given.

The test addresses T1, cathepsin G (UniProt P08311).
T1 sequence: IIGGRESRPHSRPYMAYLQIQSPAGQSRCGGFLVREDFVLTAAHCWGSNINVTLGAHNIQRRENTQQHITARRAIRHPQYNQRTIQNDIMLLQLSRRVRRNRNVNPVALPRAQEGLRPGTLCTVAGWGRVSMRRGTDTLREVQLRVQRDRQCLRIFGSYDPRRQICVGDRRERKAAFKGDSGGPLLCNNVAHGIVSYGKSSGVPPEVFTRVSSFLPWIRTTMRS
The experiment in a line: SDS-PAGE of SERPIN-protease inhibitory complex; 0.9 uM protease and 2.25 uM SERPIN (2:5 molar ratio), 22 C, 300 rpm; chymotrypsin 2 min, trypsin 1 min, cathepsin G 5 min; quenched with reducing Laemmli buffer, boiled 95 C 10 min; complex seen as a band of higher molecular weight than SERPIN or protease; both purified.
As to “SERPINA3-4 (Neotoma macrotis SERPINA3 paralog)”, the binding entry is “no binding (tested: 2.25 uM SERPIN, 0.9 uM protease)”. “SERPINA3-1 (Neotoma macrotis SERPINA3 paralog)”: the binding entry is recorded as “no binding (tested: 2.25 uM SERPIN, 0.9 uM protease)”. The same measure for “SERPINA3-12 (Neotoma macrotis SERPINA3 paralog)”: “binds”. The same measure for “SERPINA3-3 (Neotoma macrotis SERPINA3 paralog), E. coli-expressed”: “binds”. As for “SERPINA3-7 (Neotoma macrotis SERPINA3 paralog)”, the entry is “no binding (tested: 2.25 uM SERPIN, 0.9 uM protease)”; as for “SERPINA3-11 (Neotoma macrotis SERPINA3 paralog)”, “no binding (tested: 2.25 uM SERPIN, 0.9 uM protease)”; as for “SERPINA3-10 (Neotoma macrotis SERPINA3 paralog)”, “binds”. As for “SERPINA3-2 (Neotoma macrotis SERPINA3 paralog)”, the binding result is “no binding (tested: 2.25 uM SERPIN, 0.9 uM protease)”. The same measure for “SERPINA3-8 (Neotoma macrotis SERPINA3 paralog)”: “binds”; for “SERPINA3-9 (Neotoma macrotis SERPINA3 paralog)”: “no binding (tested: 2.25 uM SERPIN, 0.9 uM protease)”; for “SERPINA3-5 (Neotoma macrotis SERPINA3 paralog)”: “binds”.

Regarding “SERPINA3-6 (Neotoma macrotis SERPINA3 paralog)”, the binding entry is “no binding (tested: 2.25 uM SERPIN, 0.9 uM protease)”.
